Experimental data: PubChem BioAssay AID686938 (Drosophila RNAi Screening Center, 2013)
The screen tested about 23,000 reagents; shown is an unselected part of those that have a named target and a result. Over the whole deposit, 75 (0.33%) got an active call. 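Raw plate signals without normalisation; calls rest on plate z-scores that were not deposited; ratio present for only 364 wells.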 The numbers tell different reagents against one gene apart. The record does not give: the dose of the treatment.

Purpose: 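Knock-downs reducing store-operated calcium influx in Drosophila cells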 (primary screen)
System: Drosophila S2R+ cells
Reagent: long dsRNA against Drosophila genes, about 0.25 µg dsRNA per well, roughly 10,000 cells
Timing: 5 days of knock-down before the calcium assay
Treatment: thapsigargin (SERCA pump blocker) to empty calcium stores; entry signal taken 4 min after adding it
Read-out: 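Duplicate raw fluo-4 intensities per well from a plate reader, at rest and four minutes after thapsigargin emptied calcium stores; entry-to-rest ratio filled for only some wells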
Reading the numbers: calcium entry signal: higher = stronger calcium signal after store depletion; resting calcium signal: higher = higher resting calcium signal
Rule for the call: 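Hit if the duplicate-averaged plate z-score for entry over resting signal is under −3; wells with weak total dye signal (Fmax z < −2) or more than 5 off-targets removed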
Meaning of the calls: active = strongly reduced calcium entry; inactive = no strong reduction

The first 2 records as a preview:
no.	Target gene	reagent	calcium entry signal, replicate 1 (fluorescence units)	calcium entry signal, replicate 2 (fluorescence units)	resting calcium signal, replicate 1 (fluorescence units)	resting calcium signal, replicate 2 (fluorescence units)	activity call
1	ash1	1	2.04e7	3.09e7	1.03e7	2.08e7	inactive
2	CG3860	1	3.81e7		1.91e7		inactive

The listing, from the start:
no.	Target gene	reagent	calcium entry signal, replicate 1 (fluorescence units)	calcium entry signal, replicate 2 (fluorescence units)	resting calcium signal, replicate 1 (fluorescence units)	resting calcium signal, replicate 2 (fluorescence units)	activity call
1	ash1	1	2.04e7	3.09e7	1.03e7	2.08e7	inactive
2	CG3860	1	3.81e7		1.91e7		inactive
3	kar	1	3.32e7	3.67e7	1.56e7	1.67e7	inactive
4	sing	1	2.93e7	3.32e7	1.62e7	1.53e7	inactive
5	CG34149	1	3.37e7	3.12e7	1.67e7	1.44e7	inactive
6	CG42565	1	3.75e7	3.34e7	1.83e7	1.57e7	inactive
7	CG33093	1	3.69e7	2.39e7	1.70e7	1.23e7	inactive
8	clos	1	4.90e7	4.11e7	2.30e7	1.86e7	inactive
9	clos	2	5.06e7	5.07e7	2.53e7	1.79e7	inactive
10	clos	3	4.04e7	4.91e7	2.06e7	2.24e7	inactive
11	clos	4	2.42e7	4.41e7	1.17e7	2.04e7	inactive
12	clos	5	4.54e7	3.40e7	2.31e7	1.45e7	inactive
13	CG31031 (retired record)	1	3.95e7	3.53e7	1.93e7	1.90e7	inactive
14	dco	1	3.88e7	3.66e7	1.84e7	1.94e7	inactive
15	Toll-6	1	4.76e7	6.33e7	2.27e7	2.40e7	inactive
16	CG33158	1	6.28e7	3.05e7	2.81e7	1.63e7	inactive
17	CG33158	2	3.79e7	4.18e7	1.85e7	1.62e7	inactive
18	CG33158	3	4.01e7	5.77e7	1.80e7	2.30e7	inactive
19	Atx2	1	2.79e7	2.57e7	1.81e7	1.49e7	inactive
20	Atx2	2	3.53e7	3.05e7	2.41e7	1.97e7	active
21	neo	1	3.04e7	3.67e7	1.33e7	1.76e7	inactive
22	Fib	1	2.37e7	2.57e7	1.48e7	1.59e7	inactive
23	CG17544	1	4.40e7		2.24e7		inactive
24	hb	1	2.67e7	3.15e7	1.18e7	1.43e7	inactive
25	CG15382	1	2.59e7	2.65e7	1.24e7	1.28e7	inactive
26	Snm1	1	3.33e7	3.61e7	1.41e7	1.69e7	inactive
27	PPYR1	1	1.54e7	2.03e7	8.39e6	9.52e6	inactive
28	CG8560	1	5.46e7	4.02e7	3.48e7	1.69e7	inactive
29	CG43980	1	3.02e7	3.31e7	1.76e7	1.56e7	inactive
30	CG43980	2	2.66e7	4.45e7	1.36e7	2.10e7	inactive
31	CG43980	3	4.10e7	5.09e7	2.08e7	2.52e7	inactive
32	CG14137	1	3.10e7	3.40e7	1.71e7	1.52e7	inactive
33	CG43193 (retired record)	1	3.11e7	3.43e7	1.53e7	1.73e7	inactive
34	cg	1	2.40e7	2.64e7	1.93e7	1.55e7	inactive
35	cg	2	3.05e7	2.95e7	1.81e7	1.48e7	inactive
36	Jhbp7	1	4.68e7	4.13e7	2.21e7	1.72e7	inactive
37	plum	1	2.49e7	3.08e7	1.19e7	1.48e7	inactive
38	CG13000	1	2.72e7	2.23e7	1.53e7	1.19e7	inactive
39	Prp16	1	1.66e7	2.07e7	8.24e6	1.01e7	inactive
40	Prp16	2	2.47e7	2.41e7	1.38e7	1.29e7	inactive
